Values joined by “and” are separate entries in the source; they are usually repeats but may differ in a detail not shown here. Equal entries are not always repeated. Some of the results follow. For some assays here: The source does not settle which construct or isoform was used.

Test systems include MITF (human); MKKS (human); MKNK2 (human); MKS1 (human); MLC1 (human); MLX (human); MMP12 (human); MMP19 (human); MNAT1 (human); MOGAT3 (human); MORN2 (human); MPHOSPH6 (human); MPI (human); MPP3 (human); MPPED2 (human); MPZL2 (human); MR1 (human); MRAP (human).
Holding throughout (assay): protein microarray (ProtoArray v5.0), streptavidin-Alexa Fluor 647
What all share (conditions): 3'-biotin; 20 mM Tris (pH 7.5), 5 mM MgCl2, 100 mM KCl, 0.1% Tween-20, A/T-rich and random oligonucleotide blockers; temperature not stated; high values mean tight binding

The next assay concerns the target T1, MOBKL1A (UniProt Q7L9L4).
T1 sequence: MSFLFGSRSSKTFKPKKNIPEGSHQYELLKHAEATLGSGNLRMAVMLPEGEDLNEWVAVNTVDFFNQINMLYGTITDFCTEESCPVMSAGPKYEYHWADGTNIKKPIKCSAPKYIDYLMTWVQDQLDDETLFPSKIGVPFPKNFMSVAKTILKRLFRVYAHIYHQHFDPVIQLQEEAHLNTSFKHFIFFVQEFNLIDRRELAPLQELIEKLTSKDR

Assay [1] relates to MORF4 family-associated protein 1-like 1 (human).

Regarding “GGGAGGCTGAGGCAGG [G4-1 biotinylated (PQS2)]”, the binding signal with MITF (human) was -0.33 z-score; in the assay on MKKS (human) it was -0.287 z-score; in the assay with MKNK2 (human) it was -0.324 z-score; in the assay on MKS1 (human), -0.294 z-score; in the assay with MLC1 (human), -0.336 z-score; in the assay on MLX (human) it was -0.368 z-score and -0.348 z-score. Moreover, the binding signal in the assay on MMP12 (human) was -0.351 z-score; in the assay with MMP19 (human), -0.285 z-score; in the assay with MNAT1 (human), -0.264 z-score; in the assay with MOBKL1A, -0.334 z-score; in the assay with MOGAT3 (human), -0.361 z-score; in assay [1] it was -0.333 z-score. Besides, the binding signal is -0.291 z-score in the assay with MORN2 (human); -0.324 z-score with MPHOSPH6 (human); -0.358 z-score in the assay on MPI (human); -0.346 z-score with MPP3 (human); -0.297 z-score in the assay on MPPED2 (human); -0.279 z-score with MPZL2 (human). Besides, the binding signal is -0.329 z-score with MR1 (human) and -0.325 z-score in the assay on MRAP (human).
